Laboratory results: PubChem BioAssay AID743454 (Peter MacCallum Cancer Centre, 2014)

Screen: 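Search for knock-downs that restore vorinostat killing in resistant colon cancer cells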 (primary screen)
Cells: human HCT116-VR colon cancer cells, selected for vorinostat resistance
Reagents: siRNA pool against human genes, 40 nM siRNA pool
Duration: vorinostat for 24 h, read-out about 72 h after transfection
Treatment: vorinostat at 2.5 µM final
Read-out: 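Two measures, CellTiter-Fluor viability and luminescent caspase 3/7 activity, each as fold change against same-plate mock wells, mean of duplicates, then screen-wide robust z-score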
Reading the numbers: viability robust z-score: higher = more viable cells than screen typical; caspase robust z-score: higher = more caspase 3/7 activity than screen typical
Call rule: 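a knock-down is a hit when classed RV1 or RV2 for lowered viability, or CA1 or CA2 for caspase activation; those lethal without drug were dropped; hits were retested singly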
Shown is a random part of about 18,000 deposited reagents. Of all reagents, 450 (2.5%) were called active. 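Single biological run; no consistent viability z cut-off exists, so the class columns, not z-scores, define the calls.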 Unmarked entries are inactive. No sequences are given here.

Depletion of URI1 (URI1 prefoldin like chaperone) gave: viability hit class no change; caspase hit class no change; viability robust z-score -0.52; caspase robust z-score 0.15.
SLC22A5 gave viability hit class no change; caspase hit class no change; viability robust z-score -0.2; caspase robust z-score -0.64.
After knock-down of VPS37C (VPS37C subunit of ESCRT-I), the record shows viability hit class no change; caspase hit class no change; viability robust z-score -1.22; caspase robust z-score 0.86.
Against MYORG (myogenesis regulating glycosidase), the entry reads viability hit class no change; caspase hit class no change; viability robust z-score -1.98; caspase robust z-score 3.63.
Against PXDC1 (PX domain containing 1), the values are viability hit class no change; caspase hit class no change; viability robust z-score 0.99; caspase robust z-score -0.85.
With knock-down of CAMK2G (calcium/calmodulin dependent protein kinase II gamma), the record shows viability hit class no change; caspase hit class no change; viability robust z-score 0.39; caspase robust z-score 0.14.
Depletion of PABIR2 (PABIR family member 2) resulted in: viability hit class no change; caspase hit class no change; viability robust z-score -0.1; caspase robust z-score -0.88.
NQO2 (N-ribosyldihydronicotinamide:quinone dehydrogenase 2) showed viability hit class no change; caspase hit class no change; viability robust z-score -0.88; caspase robust z-score 0.18.
Depletion of DUS2 (dihydrouridine synthase 2) came out at: viability hit class no change; caspase hit class no change; viability robust z-score 0.27; caspase robust z-score 3.34.
With knock-down of C1orf226 (chromosome 1 open reading frame 226), the record shows viability hit class no change; caspase hit class no change; viability robust z-score 0.14; caspase robust z-score 4.19.
Silencing of BEX4 (brain expressed X-linked 4) came out at: viability hit class no change; caspase hit class no change; viability robust z-score 0.13; caspase robust z-score -0.01.
Depletion of AP3M1 (adaptor related protein complex 3 subunit mu 1) gave: viability hit class no change; caspase hit class no change; viability robust z-score 1.96; caspase robust z-score -0.2.

In a second layout: entries from further up.
target,viability hit class,caspase hit class,viability robust z-score,caspase robust z-score
DUS2 (dihydrouridine synthase 2),no change,no change,0.27,3.34
C1orf226 (chromosome 1 open reading frame 226),no change,no change,0.14,4.19
BEX4 (brain expressed X-linked 4),no change,no change,0.13,-0.01

Continued.
For OLFM4 (olfactomedin 4) the deposit lists viability hit class no change; caspase hit class no change; viability robust z-score 0.77; caspase robust z-score -0.81.
After knock-down of TMEM223 (transmembrane protein 223), the screen gave viability hit class no change; caspase hit class no change; viability robust z-score -0.08; caspase robust z-score -0.82.
NPHP1 (nephrocystin 1) showed viability hit class no change; caspase hit class no change; viability robust z-score -0.74; caspase robust z-score 0.34.
Knock-down of ERBIN (erbb2 interacting protein) gave: viability hit class no change; caspase hit class no change; viability robust z-score 2.26; caspase robust z-score -0.17.
MVB12A (multivesicular body subunit 12A) scored viability hit class no change; caspase hit class no change; viability robust z-score -0.51; caspase robust z-score -0.12.
With knock-down of VCF1 (VCP nuclear cofactor family member 1), the record shows viability hit class no change; caspase hit class no change; viability robust z-score -0.18; caspase robust z-score 0.01.
Depletion of PGBD5 (piggyBac transposable element derived 5) came out at: viability hit class no change; caspase hit class no change; viability robust z-score 0.76; caspase robust z-score 0.51.
Silencing of OR2W5 gave: viability hit class no change (active); caspase hit class CA1 (caspase activation); viability robust z-score 0.07; caspase robust z-score 7.18.
WDR70 (WD repeat domain 70) showed viability hit class no change; caspase hit class no change; viability robust z-score -0.26; caspase robust z-score 0.8.
